Test results reported in patent US12097329B2, “Apparatus to administer drugs to mechanically ventilated patients” (Chiesi Farmaceutici S.p.A., priority 2018, dated 2024).
Structures can show the parent of a compound that is named as a salt.

Test: Aerosol performance by Next Generation Impactor (NGI), drug quantified by HPLC
Assay type: physicochemical
Protocol: A powder formulation was prepared according to the teaching of Examples 2 and 3 of WO 2013/110632 and loaded in the multi-dose dry powder inhaler described in WO 2016/000983. A ventilator system Monnal T75, available from Air Liquid Medical Systems […], Italy) was used. A Catheter mounth (ID 10 mm, length 17 cm) and an endotracheal catheter (ID 8 mm, length 8.5 cm) were also utilized. Other equipments were standard. The following conditions were set-up: tidal volume: 500 ml; PEEP 5 cmH2O; Flow rate: about 41 l/min; breath frequency: 15 bpm. All tests were performed at room temperature and lung temperature (about 37° C.) with in line humidification (about 75% relative humidity system). The inhaler was connected to the ventilation system through the connector of the invention. The evaluation of the aerosol performance was carried out using the Next Generation Impactor (NGI) according to the conditions reported in the European Pharmacopeia 8.5th Ed 2015, par 2.9.18, pages 309-320. After aerosolization of three doses from the inhaler device, the NGI apparatus was disassembled and the amounts of drug deposited in the stages were recovered by washing with a solvent mixture and then quantified by High-Performance Liquid Chromatography (HPLC).

[1] = BDP + FF 100 + 6 μg/10 mg DPI 37° C. 75% RH T-vol 500, connected to ventilation system through the connector
[2] = BDP + FF 100 + 6 μg/10 mg DPI - Release

## COc1ccc(CC(C)NCC(O)c2ccc(O)c(NC=O)c2)cc1 (stereo not drawn) [FF, formoterol fumarate dihydrate]
[1]
  EFPF (extrafine particle fraction): 27.69 % on DD
  EFPM (extrafine FPM): 1.06 µg
  FPF (fine particle fraction): 59.19 % on DD
[2]
  EFPF (extrafine particle fraction): 18.98 % on DD
  EFPM (extrafine FPM): 0.88 µg
  FPF (fine particle fraction): 62.09 % on DD
